{"source": "PubChem BioAssay AID1159578 (Peter MacCallum Cancer Centre, 2015)", "purpose": "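siRNA pools altering how lymphatic endothelial cells close a scratch wound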 (primary screen)", "system": "human lymphatic endothelial cells", "reagents": "siRNA pool against human genes, 40 nM", "timing": "48 h after transfection", "detection": "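Cells stained with dye and imaged after a scratch; covered wound area and nuclei counted, duplicates averaged, migration set against mock wells and turned into a robust z-score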", "scale": "migration robust z-score: higher = faster migration into the scratch; nuclei per well: higher = more cells in the well", "rule for the call": "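Migration changed when robust z exceeds 2 or falls below -2 and mean nuclei number is at least 3300; otherwise not called changed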", "meaning of the calls": "active = migration changed; inactive = no migration change, or too few cells", "note": "Shown is an unselected part of about 18,000 deposited reagents. Of all reagents, about 1,030 (5.7%) are marked active. 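Inactive calls also include pools with fewer than 3300 nuclei, whose migration was not assessed.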 The raw values are shown without normalisation. Further read-outs or replicates are left out here."}
The first 2 entries, to show the layout:
{"Gene": "DHCR7", "migration robust z-score": 0.18, "nuclei per well, duplicate mean": 4399, "Call": "inactive"}
{"Gene": "RPN2", "migration robust z-score": -1.78, "nuclei per well, duplicate mean": 5704, "Call": "inactive"}

The listing, repeating the preview:
{"Gene": "DHCR7", "migration robust z-score": 0.18, "nuclei per well, duplicate mean": 4399, "Call": "inactive"}
{"Gene": "RPN2", "migration robust z-score": -1.78, "nuclei per well, duplicate mean": 5704, "Call": "inactive"}
{"Gene": "SLC9A5", "migration robust z-score": 1.35, "nuclei per well, duplicate mean": 6232, "Call": "inactive"}
{"Gene": "KCNJ15", "migration robust z-score": -0.52, "nuclei per well, duplicate mean": 4980, "Call": "inactive"}
{"Gene": "PYDC2", "migration robust z-score": -1.98, "nuclei per well, duplicate mean": 3274, "Call": "inactive"}
{"Gene": "KLK13", "migration robust z-score": 0.31, "nuclei per well, duplicate mean": 5470, "Call": "inactive"}
{"Gene": "KRTAP5-8", "migration robust z-score": -0.68, "nuclei per well, duplicate mean": 6038, "Call": "inactive"}
{"Gene": "FAM135B", "migration robust z-score": 1.25, "nuclei per well, duplicate mean": 6256, "Call": "inactive"}
{"Gene": "VSIG4", "migration robust z-score": -0.4, "nuclei per well, duplicate mean": 5736, "Call": "inactive"}
{"Gene": "PILRA", "migration robust z-score": 0.04, "nuclei per well, duplicate mean": 6186, "Call": "inactive"}
{"Gene": "MRPL27", "migration robust z-score": 0.25, "nuclei per well, duplicate mean": 5885, "Call": "inactive"}
{"Gene": "CCN2", "migration robust z-score": -0.16, "nuclei per well, duplicate mean": 5828, "Call": "inactive"}
